Results are given in words; binding and its absence hold for the method and conditions named. Binding seen in cells or lysates may run through a third protein. For some assays here: Tags and fused reporters may be left off the sequences shown.
T1: GST-tagged Ct288 (C. trachomatis) (UniProt O84290)
T1 sequence: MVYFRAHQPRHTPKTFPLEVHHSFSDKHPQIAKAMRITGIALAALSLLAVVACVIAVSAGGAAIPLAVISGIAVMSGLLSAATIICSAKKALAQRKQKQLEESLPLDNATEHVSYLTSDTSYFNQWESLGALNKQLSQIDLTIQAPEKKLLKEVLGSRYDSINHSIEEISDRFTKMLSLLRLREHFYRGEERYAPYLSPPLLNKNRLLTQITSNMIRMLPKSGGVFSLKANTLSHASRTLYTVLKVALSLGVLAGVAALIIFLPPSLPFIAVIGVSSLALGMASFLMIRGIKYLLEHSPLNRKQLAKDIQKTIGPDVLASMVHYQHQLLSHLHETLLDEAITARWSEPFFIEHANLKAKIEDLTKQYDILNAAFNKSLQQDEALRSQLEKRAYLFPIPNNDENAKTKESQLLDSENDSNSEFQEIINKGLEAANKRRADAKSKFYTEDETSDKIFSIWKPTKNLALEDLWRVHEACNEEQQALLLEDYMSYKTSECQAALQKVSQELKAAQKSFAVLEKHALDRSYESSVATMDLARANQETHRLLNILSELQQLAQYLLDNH


Key:
[1] = biological target: T1, GST-tagged Ct288 (C. trachomatis); assay: pull-down; untagged Slc1 co-expressed in E. coli with GST-tagged test protein; glutathione-Sepharose beads, 4 h; binding buffer 1% Triton X-100, 20 mM Tris, 150 mM NaCl, 1 mM EDTA, pH 7.4; washes up to 300 mM NaCl; immunoblot with anti-Slc1 and anti-GST
[2] = biological target: Slc1 (Ct043), type III secretion chaperone (Chlamydia trachomatis LGV serotype L2 strain 434/Bu (endogenous in EBs)); assay: co-IP; EB lysates with anti-Slc1 antisera or pre-immune sera, captured on Protein A/G agarose; bound and unbound fractions immunoblotted

Row | Molecule | binding [1] | binding [2]
1 | untagged Slc1, recombinant (C. trachomatis) | no binding | 
2 | MOMP (major outer membrane protein) (protein, UniProt P06597 23-394) LPVGNPAEPSLMIDGILWEGFGGDPCDPCTTWCDAISMRMGYYGDFVFDRVLQTDVNKEFQMGAKPTTATGNAAAPSTCTARENPAYGRHMQDAEMFTNAAYMALNIWDRFDVFCTLGATSGYLKGNSASFNLVGLFGDNENHATVSDSKLVPNMSLDQSVVELYTDTTFAWSAGARAALWECGCATLGASFQYAQSKPKVEELNVLCNAAEFTINKPKGYVGQEFPLDLKAGTDGVTGTKDASIDYHEWQASLALSYRLNMFTPYIGVKWSRASFDADTIRIAQPKSATTVFDVTTLNPTIAGAGDVKASAEGQLGDTMQIVSLQLNKMKSRKSCGIAVGTTIVDADKYAVTVETRLIDERAAHVNAQFRF |  | no binding

— paper PMC3930595
